This is one part of the list.
Key:
Experiment in all cases: log2 fold change, soluble protein after heating vs DMSO (PISA); higher = thermal stabilisation; K562 cells, 10 uM, 30 min; active = over 0.2 and 3.5 SD of the protein, either way, in both replicates (recomputed)
[1] = compound: CS(=O)(=O)c1ccc(-c2cnc(N)c(C(=O)Nc3ccccc3)n2)cc1
Method in brief: (§1)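 Quantification of soluble protein used TMTpro 16plex LC-MS/MS, with channel sums equalised. Samples were the supernatant after 21,000xg for 90 min of pooled aliquots from K562 cells (2×10^6 cells/mL) treated with 10 μM compound for 30 min, heated for 3 min over 48°C-58°C, and extracted in PBS with 0.5% NP-40 at 4°C. Values, from duplicates, describe thermal stability against control samples on a log2 fold-change scale.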

The chains behind the UniProt entries cited, without tags or fusion partners. Where a name states a change or a piece, a line headed by the entry shows the natural chain unless it says otherwise.
UniProt P12980: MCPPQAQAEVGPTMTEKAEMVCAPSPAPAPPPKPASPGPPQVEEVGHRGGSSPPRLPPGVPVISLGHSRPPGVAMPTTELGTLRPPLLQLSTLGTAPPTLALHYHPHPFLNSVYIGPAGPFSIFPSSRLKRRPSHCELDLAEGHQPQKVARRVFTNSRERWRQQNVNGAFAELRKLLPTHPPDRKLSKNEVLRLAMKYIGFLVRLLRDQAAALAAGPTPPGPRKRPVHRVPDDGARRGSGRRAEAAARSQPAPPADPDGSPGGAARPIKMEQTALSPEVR
UniProt P27448: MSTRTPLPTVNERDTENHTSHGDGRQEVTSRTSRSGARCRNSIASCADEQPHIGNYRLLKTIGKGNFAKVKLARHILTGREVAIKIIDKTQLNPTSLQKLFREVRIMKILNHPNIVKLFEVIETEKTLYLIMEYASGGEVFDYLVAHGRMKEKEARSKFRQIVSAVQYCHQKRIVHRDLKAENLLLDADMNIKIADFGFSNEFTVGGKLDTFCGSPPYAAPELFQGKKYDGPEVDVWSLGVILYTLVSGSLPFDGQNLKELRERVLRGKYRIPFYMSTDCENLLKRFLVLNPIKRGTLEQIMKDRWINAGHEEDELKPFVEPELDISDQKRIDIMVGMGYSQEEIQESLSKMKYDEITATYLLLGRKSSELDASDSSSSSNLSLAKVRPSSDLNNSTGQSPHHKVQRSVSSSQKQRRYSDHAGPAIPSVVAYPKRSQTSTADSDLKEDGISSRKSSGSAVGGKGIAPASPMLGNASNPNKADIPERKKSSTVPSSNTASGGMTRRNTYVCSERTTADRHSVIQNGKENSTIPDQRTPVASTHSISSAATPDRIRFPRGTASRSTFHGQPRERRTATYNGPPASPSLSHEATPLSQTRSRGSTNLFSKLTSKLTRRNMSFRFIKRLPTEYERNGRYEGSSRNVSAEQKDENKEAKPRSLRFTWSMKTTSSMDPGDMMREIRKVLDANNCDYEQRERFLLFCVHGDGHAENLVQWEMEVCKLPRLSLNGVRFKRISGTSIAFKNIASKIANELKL
UniProt Q8WWC4: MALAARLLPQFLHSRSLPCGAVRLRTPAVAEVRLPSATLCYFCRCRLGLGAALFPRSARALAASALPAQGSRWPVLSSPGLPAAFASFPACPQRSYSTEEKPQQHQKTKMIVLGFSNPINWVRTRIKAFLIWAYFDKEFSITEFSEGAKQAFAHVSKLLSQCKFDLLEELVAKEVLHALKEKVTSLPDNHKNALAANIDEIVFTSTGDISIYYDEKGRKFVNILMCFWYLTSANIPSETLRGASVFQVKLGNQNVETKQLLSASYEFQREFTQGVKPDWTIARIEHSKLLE
UniProt Q9Y2E5: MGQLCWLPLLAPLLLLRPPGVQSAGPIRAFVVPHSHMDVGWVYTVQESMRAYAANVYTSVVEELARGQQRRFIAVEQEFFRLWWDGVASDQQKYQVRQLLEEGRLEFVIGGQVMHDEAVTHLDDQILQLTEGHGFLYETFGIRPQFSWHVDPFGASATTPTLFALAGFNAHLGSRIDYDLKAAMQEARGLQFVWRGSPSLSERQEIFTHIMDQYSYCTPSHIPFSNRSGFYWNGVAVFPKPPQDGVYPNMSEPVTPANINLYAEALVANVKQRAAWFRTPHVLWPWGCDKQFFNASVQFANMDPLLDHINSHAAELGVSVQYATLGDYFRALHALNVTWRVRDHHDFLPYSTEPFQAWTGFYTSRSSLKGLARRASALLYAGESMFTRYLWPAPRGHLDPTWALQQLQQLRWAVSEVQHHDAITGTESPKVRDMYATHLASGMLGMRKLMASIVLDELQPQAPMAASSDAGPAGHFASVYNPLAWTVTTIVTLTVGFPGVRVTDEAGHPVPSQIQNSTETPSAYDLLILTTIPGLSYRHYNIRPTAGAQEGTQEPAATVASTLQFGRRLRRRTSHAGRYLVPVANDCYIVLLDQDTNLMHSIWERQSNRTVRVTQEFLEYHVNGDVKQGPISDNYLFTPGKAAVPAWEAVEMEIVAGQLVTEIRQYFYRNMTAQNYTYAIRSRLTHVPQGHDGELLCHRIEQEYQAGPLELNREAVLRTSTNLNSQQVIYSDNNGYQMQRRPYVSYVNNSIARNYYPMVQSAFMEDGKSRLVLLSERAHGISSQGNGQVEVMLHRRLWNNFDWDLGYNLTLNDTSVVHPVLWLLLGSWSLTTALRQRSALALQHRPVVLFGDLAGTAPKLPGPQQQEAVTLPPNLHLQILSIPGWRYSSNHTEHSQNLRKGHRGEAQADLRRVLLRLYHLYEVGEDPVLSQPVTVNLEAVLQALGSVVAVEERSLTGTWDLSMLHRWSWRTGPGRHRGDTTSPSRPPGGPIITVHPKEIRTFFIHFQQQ
UniProt P43362: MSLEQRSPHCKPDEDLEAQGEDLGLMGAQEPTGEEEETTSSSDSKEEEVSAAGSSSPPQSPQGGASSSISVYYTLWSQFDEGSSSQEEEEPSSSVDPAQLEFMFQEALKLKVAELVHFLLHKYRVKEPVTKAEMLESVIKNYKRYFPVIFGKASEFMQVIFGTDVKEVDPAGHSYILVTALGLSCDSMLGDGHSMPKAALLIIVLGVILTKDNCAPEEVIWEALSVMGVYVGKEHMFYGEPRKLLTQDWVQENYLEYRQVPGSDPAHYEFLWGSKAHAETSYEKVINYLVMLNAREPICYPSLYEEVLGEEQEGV
UniProt Q16539, whole entry, looked up: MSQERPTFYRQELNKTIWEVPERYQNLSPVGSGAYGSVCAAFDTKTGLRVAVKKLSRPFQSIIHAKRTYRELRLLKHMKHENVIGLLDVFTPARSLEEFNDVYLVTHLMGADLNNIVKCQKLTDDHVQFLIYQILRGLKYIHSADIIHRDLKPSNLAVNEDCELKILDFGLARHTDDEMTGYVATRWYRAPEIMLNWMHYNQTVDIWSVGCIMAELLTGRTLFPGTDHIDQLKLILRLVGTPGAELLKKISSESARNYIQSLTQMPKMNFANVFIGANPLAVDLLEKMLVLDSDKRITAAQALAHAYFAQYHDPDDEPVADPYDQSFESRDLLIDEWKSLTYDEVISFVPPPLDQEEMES
UniProt P49137, whole entry, looked up: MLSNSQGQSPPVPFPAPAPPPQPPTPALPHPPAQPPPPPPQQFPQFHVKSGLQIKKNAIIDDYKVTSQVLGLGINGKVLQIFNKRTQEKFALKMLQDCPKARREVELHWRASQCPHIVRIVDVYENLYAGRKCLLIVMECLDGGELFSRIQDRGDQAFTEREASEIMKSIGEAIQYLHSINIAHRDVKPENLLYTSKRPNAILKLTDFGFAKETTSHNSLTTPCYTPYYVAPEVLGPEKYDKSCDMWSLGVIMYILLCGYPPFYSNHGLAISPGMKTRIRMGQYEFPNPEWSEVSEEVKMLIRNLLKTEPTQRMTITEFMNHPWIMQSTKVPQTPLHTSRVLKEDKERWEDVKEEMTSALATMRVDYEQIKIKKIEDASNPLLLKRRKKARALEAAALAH
UniProt Q9H063: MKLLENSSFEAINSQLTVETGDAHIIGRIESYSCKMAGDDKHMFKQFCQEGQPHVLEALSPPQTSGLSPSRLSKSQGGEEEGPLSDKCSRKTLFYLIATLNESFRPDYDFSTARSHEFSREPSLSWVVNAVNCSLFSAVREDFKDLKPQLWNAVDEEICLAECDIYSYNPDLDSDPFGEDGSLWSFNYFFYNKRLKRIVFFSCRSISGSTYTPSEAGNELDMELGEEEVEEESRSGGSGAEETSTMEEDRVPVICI
UniProt Q32MZ4: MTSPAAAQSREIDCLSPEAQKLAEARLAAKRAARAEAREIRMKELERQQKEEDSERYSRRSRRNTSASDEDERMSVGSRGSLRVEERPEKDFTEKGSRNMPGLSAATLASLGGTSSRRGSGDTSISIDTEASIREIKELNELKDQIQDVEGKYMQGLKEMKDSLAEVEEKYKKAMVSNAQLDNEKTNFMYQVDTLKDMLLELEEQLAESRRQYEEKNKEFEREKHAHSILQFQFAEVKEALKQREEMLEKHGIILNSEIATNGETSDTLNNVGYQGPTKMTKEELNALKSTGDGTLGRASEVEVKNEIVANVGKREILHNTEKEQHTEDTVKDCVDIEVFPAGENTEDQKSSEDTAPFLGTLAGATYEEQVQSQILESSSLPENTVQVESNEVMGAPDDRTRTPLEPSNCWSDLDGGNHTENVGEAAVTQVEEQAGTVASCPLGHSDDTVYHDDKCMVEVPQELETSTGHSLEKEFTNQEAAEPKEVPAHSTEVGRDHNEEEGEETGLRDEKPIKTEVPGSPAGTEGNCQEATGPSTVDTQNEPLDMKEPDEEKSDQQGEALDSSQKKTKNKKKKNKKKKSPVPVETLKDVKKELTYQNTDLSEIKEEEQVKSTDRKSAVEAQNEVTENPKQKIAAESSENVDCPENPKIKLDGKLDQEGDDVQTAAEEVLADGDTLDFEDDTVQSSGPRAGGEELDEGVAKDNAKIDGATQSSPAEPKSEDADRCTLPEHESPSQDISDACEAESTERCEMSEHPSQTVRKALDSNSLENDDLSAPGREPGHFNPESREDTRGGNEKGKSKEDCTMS
UniProt Q8IVH8: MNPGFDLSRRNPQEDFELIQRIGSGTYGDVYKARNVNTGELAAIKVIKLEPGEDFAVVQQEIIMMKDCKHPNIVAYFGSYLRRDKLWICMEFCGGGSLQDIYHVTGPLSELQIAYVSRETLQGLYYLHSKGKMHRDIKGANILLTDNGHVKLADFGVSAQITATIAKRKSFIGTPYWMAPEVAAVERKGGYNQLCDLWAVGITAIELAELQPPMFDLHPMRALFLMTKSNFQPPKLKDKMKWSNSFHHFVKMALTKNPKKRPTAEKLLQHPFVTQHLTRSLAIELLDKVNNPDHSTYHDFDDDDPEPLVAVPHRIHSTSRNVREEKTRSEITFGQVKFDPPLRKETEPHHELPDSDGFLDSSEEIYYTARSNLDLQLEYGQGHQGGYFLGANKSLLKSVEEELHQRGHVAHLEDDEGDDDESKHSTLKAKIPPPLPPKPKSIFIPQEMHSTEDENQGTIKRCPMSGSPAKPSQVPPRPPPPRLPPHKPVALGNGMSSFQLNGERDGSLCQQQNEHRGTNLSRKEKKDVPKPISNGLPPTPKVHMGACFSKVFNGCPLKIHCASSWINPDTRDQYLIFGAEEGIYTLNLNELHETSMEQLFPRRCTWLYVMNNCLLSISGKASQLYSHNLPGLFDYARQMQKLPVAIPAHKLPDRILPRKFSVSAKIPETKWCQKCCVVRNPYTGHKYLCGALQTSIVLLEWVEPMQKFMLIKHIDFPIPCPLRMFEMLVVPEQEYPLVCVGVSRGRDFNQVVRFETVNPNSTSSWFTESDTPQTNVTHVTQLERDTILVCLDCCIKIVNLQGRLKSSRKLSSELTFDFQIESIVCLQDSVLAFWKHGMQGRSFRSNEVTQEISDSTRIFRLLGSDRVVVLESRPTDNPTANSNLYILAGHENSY
UniProt Q02779: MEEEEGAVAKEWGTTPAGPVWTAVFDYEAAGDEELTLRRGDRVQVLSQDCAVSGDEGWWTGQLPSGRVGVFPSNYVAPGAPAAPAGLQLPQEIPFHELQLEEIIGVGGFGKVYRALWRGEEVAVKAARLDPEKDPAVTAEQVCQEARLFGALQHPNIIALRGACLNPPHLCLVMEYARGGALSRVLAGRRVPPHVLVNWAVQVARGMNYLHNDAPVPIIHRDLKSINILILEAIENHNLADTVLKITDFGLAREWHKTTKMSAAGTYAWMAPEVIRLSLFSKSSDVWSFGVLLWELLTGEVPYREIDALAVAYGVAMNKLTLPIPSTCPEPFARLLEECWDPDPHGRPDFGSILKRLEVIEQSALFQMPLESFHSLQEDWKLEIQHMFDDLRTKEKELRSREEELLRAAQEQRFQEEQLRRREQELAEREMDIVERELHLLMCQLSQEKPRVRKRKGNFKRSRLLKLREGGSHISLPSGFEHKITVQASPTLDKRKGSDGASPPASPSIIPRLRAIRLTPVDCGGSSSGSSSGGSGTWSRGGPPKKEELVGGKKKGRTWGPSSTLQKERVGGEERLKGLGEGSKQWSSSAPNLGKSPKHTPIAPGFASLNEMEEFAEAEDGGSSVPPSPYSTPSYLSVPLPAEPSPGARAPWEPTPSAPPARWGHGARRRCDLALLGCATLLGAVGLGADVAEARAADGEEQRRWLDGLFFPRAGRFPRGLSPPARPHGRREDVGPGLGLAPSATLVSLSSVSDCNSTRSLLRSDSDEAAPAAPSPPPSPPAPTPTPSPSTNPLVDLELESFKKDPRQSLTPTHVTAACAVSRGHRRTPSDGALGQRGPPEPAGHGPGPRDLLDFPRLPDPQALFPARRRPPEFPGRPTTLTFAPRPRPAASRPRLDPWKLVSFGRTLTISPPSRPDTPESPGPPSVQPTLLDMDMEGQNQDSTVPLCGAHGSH
UniProt Q86UD3: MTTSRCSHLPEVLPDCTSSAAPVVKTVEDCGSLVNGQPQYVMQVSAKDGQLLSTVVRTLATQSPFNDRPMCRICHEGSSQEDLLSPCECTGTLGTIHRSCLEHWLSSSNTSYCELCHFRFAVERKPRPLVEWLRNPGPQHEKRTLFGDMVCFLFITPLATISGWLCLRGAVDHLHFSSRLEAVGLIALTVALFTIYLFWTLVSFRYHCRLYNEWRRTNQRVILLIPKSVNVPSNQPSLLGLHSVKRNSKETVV

crizotinib = compound: C[C@@H](Oc1cc(-c2cnn(C3CCNCC3)c2)cnc1N)c1c(Cl)ccc(F)c1Cl [crizotinib]
Method in brief: as §1

[2] = compound: C[C@@H]1COCCN1C2=NC(=NC(=C2)C3(CC3)S(=O)(=O)C)C4=C5C=CNC5=CC=C4
Method in brief: as §1

[3] = compound: C[C@H](C1=CC=C(C=C1)C(=O)NC2=C3C=CNC3=NC=C2)N
Method in brief: as §1

tozasertib = compound: Cc1cc(Nc2cc(N3CCN(C)CC3)nc(Sc3ccc(NC(=O)C4CC4)cc3)n2)n[nH]1 [tozasertib]
Method in brief: as §1

doramapimod = compound: Cc1ccc(-n2nc(C(C)(C)C)cc2NC(=O)Nc2ccc(OCCN3CCOCC3)c3ccccc23)cc1 [doramapimod]
Method in brief: as §1

ispinesib = compound: Cc1ccc(C(=O)N(CCCN)[C@@H](c2nc3cc(Cl)ccc3c(=O)n2Cc2ccccc2)C(C)C)cc1 [ispinesib]
Method in brief: as §1

bafetinib = compound: Cc1ccc(NC(=O)c2ccc(CN3CC[C@H](N(C)C)C3)c(C(F)(F)F)c2)cc1Nc1nccc(-c2cncnc2)n1 [bafetinib]
Method in brief: as §1

nilotinib = compound: Cc1cn(-c2cc(NC(=O)c3ccc(C)c(Nc4nccc(-c5cccnc5)n4)c3)cc(C(F)(F)F)c2)cn1 [nilotinib]
Method in brief: as §1

[4] = compound: Cc1nc(Nc2n[nH]c3c2CN(C(=O)N[C@H](CN(C)C)c2ccccc2)C3(C)C)c2sccc2n1
Method in brief: as §1

[5] = compound: Cc1ncc(-c2ccnc(Nc3ccc(S(C)(=O)=O)cc3)n2)n1C(C)C
Method in brief: as §1

[6] = compound: Cn1cc(-c2ccc3c(c2)CCN3C(=O)Cc2cccc(C(F)(F)F)c2)c2c(N)ncnc21
Method in brief: as §1

[7] = compound: Cn1cc(-c2ccc3nnc(C(F)(F)c4ccc5ncccc5c4)n3n2)cn1
Method in brief: as §1

tipifarnib = compound: Cn1cncc1[C@@](N)(c1ccc(Cl)cc1)c1ccc2c(c1)c(-c1cccc(Cl)c1)cc(=O)n2C [tipifarnib]
Method in brief: as §1

mubritinib = compound: FC(F)(F)c1ccc(/C=C/c2nc(COc3ccc(CCCCn4ccnn4)cc3)co2)cc1 [mubritinib]
Method in brief: as §1

gandotinib = compound: Cc1cc(Nc2cc(CN3CCOCC3)c3nc(C)c(Cc4ccc(Cl)cc4F)n3n2)n[nH]1 [gandotinib]
Method in brief: as §1

[8] = compound: Cc1cc(SCc2sc(-c3ccc(C(F)(F)F)cc3)nc2C)ccc1OCC(=O)O
Method in brief: as §1

[9] = compound: Cc1cccc(CC(=O)N2CCc3c2ccc(-c2cn(C)c4ncnc(N)c24)c3F)n1
Method in brief: as §1

dasatinib = compound: Cc1nc(Nc2ncc(C(=O)Nc3c(C)cccc3Cl)s2)cc(N2CCN(CCO)CC2)n1 [dasatinib]
Method in brief: as §1

duvelisib = compound: C[C@H](Nc1ncnc2nc[nH]c12)c1cc2cccc(Cl)c2c(=O)n1-c1ccccc1 [duvelisib]
Method in brief: as §1

Target | log2 fold change [1] | log2 fold change (crizotinib) | log2 fold change [2] | log2 fold change [3] | log2 fold change (tozasertib) | log2 fold change (doramapimod) | log2 fold change (ispinesib) | log2 fold change (bafetinib) | log2 fold change (nilotinib) | log2 fold change [4] | log2 fold change [5] | log2 fold change [6] | log2 fold change [7] | log2 fold change (tipifarnib) | log2 fold change (mubritinib) | log2 fold change (gandotinib) | log2 fold change [8] | log2 fold change [9] | log2 fold change (dasatinib) | log2 fold change (duvelisib)
LYL1 (UniProt P12980) | inactive: -0.005 | inactive: -0.137 | inactive: 0.164 | inactive: 0.157 | inactive: 0.068 | inactive: 0.153 | inactive: -0.007 | inactive: -0.151 | inactive: -0.126 | inactive: -0.072 | inactive: -0.074 | inactive: -0.037 | inactive: -0.087 | inactive: -0.036 | inactive: -0.224 |  |  |  |  | 
MARK3 (UniProt P27448) | inactive: -0.042 | active: -0.394 | inactive: -0.039 | inactive: 0.063 |  | inactive: 0.073 | inactive: -0.173 | inactive: 0.033 | inactive: -0.125 | active: -0.718 | inactive: -0.11 | inactive: -0.062 | inactive: -0.046 | inactive: -0.013 | inactive: -0.075 | inactive: -0.194 | inactive: 0.089 | inactive: 0.108 | inactive: -0.104 | 
MAIP1 (UniProt Q8WWC4) | inactive: 0.071 | inactive: -0.114 | inactive: 0.062 | inactive: -0.072 |  | inactive: -0.008 | inactive: -0.21 | inactive: -0.147 | inactive: 0.027 | inactive: 0.007 | inactive: -0.004 | inactive: 0.031 | inactive: 0.028 | inactive: -0.047 | inactive: -0.006 | inactive: -0.025 | inactive: -0.005 | inactive: 0.005 | inactive: -0.021 | 
MAN2B2 (UniProt Q9Y2E5) | inactive: 0.051 | inactive: -0.014 | inactive: 0.055 |  |  | inactive: 0.017 | inactive: -0.147 | inactive: -0.302 | inactive: -0.171 | inactive: 0.057 | inactive: -0.023 |  | inactive: -0.088 | inactive: 0.093 | inactive: 0.147 |  | inactive: 0.004 |  | inactive: 0.013 | 
MAP3K20 (UniProt Q9NYL2) | inactive: -0.003 | inactive: -0.01 | inactive: -0.065 | inactive: 0.059 |  | inactive: -0.072 | inactive: -0.141 | active: -0.246 | inactive: -0.216 | inactive: 0.057 | inactive: -0.079 | inactive: -0.065 | inactive: -0.019 | inactive: -0.013 | inactive: -0.041 | inactive: -0.025 | inactive: 0.053 | inactive: 0.039 | active: -0.712 | 
MAD2L1 (UniProt Q13257) | inactive: 0.02 | inactive: -0.076 | inactive: 0.092 | inactive: -0.004 |  | inactive: 0.034 | inactive: -0.023 | inactive: -0.054 | inactive: -0.082 | inactive: -0.042 | inactive: -0.012 | inactive: -0.001 | inactive: 0.009 | inactive: -0.055 | inactive: 0.042 | inactive: -0.139 | inactive: 0.037 | inactive: 0.018 | inactive: -0.06 | 
MAGEA9 (UniProt P43362) | inactive: 0.005 | inactive: 0.008 | inactive: 0.082 | inactive: -0.028 |  | inactive: 0 | inactive: -0.001 | inactive: 0.03 | inactive: 0.021 | inactive: -0.006 | inactive: -0.034 | inactive: 0.065 | inactive: -0.024 | inactive: -0.008 | inactive: -0.048 | inactive: -0.095 | inactive: -0.029 | inactive: -0.02 | inactive: 0.074 | 
MAPK14 (UniProt Q16539) | inactive: 0.023 | inactive: -0.062 |  | inactive: 0.018 |  |  | inactive: -0.069 | active: 1.65 | active: 1.68 | inactive: 0.123 | inactive: 0.071 | inactive: 0.107 | inactive: 0.014 | inactive: -0.102 | inactive: 0 | inactive: -0.099 | inactive: 0.015 | inactive: -0.092 | active: 1.05 | 
MAPRE3 (UniProt Q9UPY8) | inactive: -0.011 | inactive: 0.004 | inactive: 0.092 | inactive: -0.085 |  | inactive: -0.042 | inactive: 0.02 | inactive: -0.037 | inactive: -0.012 | inactive: -0.038 | inactive: 0.021 | inactive: -0.041 | inactive: 0.061 | inactive: -0.037 | inactive: 0.027 | inactive: -0.098 | inactive: 0.006 | inactive: 0.038 | inactive: -0.042 | 
MAP4K5 (UniProt Q9Y4K4) | inactive: 0.019 |  | inactive: 0.072 | inactive: 0.24 |  | inactive: -0.064 | inactive: -0.045 | inactive: -0.064 | inactive: 0.136 | inactive: -0.093 | inactive: -0.116 | inactive: -0.125 | inactive: 0.019 | inactive: -0.146 | inactive: 0.022 | inactive: -0.067 |  | inactive: -0.001 |  | 
MAPKAPK2 (UniProt P49137) | inactive: -0.032 | inactive: -0.082 | inactive: 0.035 | inactive: -0.019 |  | inactive: 0.147 | inactive: -0.003 | inactive: 0.125 | inactive: 0.145 | inactive: 0.045 | inactive: -0.011 | inactive: -0.014 | inactive: -0.022 | inactive: -0.022 | inactive: -0.009 | inactive: -0.066 | inactive: 0.006 | inactive: 0.017 | inactive: -0.086 | 
MAFF (UniProt Q9ULX9) | inactive: -0.352 | inactive: 0.114 |  |  |  | inactive: 0.046 | inactive: -0.104 | inactive: -0.07 | inactive: -0.04 | inactive: -0.005 | inactive: 0.018 |  | inactive: -0.05 |  | inactive: 0.093 | inactive: 0.058 | inactive: -0.048 | inactive: -0.008 | inactive: 0.077 | inactive: -0.042
MAF1 (UniProt Q9H063) |  |  |  |  |  |  | inactive: -0.043 |  |  |  |  |  | inactive: 0.064 |  |  |  |  |  |  | 
LRRFIP1 isoform 4 (UniProt Q32MZ4) |  | inactive: 0.012 | inactive: 0.175 | inactive: 0.59 |  | inactive: -0.016 |  |  |  |  |  | inactive: -0.226 |  |  |  | inactive: 0.548 | inactive: -0.025 | inactive: -0.046 | inactive: -0.095 | 
MAP4K3 (UniProt Q8IVH8) | inactive: -0.089 |  |  |  |  | inactive: 0.002 |  | inactive: -0.36 |  |  |  |  |  |  |  |  |  |  |  | 
MAP3K10 (UniProt Q02779) | inactive: 0.155 |  |  |  | inactive: -0.028 |  |  | inactive: -0.059 |  |  |  |  |  | inactive: -0.202 |  | inactive: -0.057 |  | inactive: -0.042 |  | 
MARCHF3 (UniProt Q86UD3) | inactive: 0.243 |  | inactive: 0.029 |  |  |  |  | inactive: 0.109 | inactive: 0.156 | inactive: 0.15 | inactive: 0.036 |  |  | inactive: 0.001 |  |  |  |  |  | 

Random excerpt: two entries already listed, in no set order.
Target | log2 fold change [1] | log2 fold change (crizotinib) | log2 fold change [2] | log2 fold change [3] | log2 fold change (tozasertib) | log2 fold change (doramapimod) | log2 fold change (ispinesib) | log2 fold change (bafetinib) | log2 fold change (nilotinib) | log2 fold change [4] | log2 fold change [5] | log2 fold change [6] | log2 fold change [7] | log2 fold change (tipifarnib) | log2 fold change (mubritinib) | log2 fold change (gandotinib) | log2 fold change [8] | log2 fold change [9] | log2 fold change (dasatinib) | log2 fold change (duvelisib)
MAPRE3 (UniProt Q9UPY8) | inactive: -0.011 | inactive: 0.004 | inactive: 0.092 | inactive: -0.085 |  | inactive: -0.042 | inactive: 0.02 | inactive: -0.037 | inactive: -0.012 | inactive: -0.038 | inactive: 0.021 | inactive: -0.041 | inactive: 0.061 | inactive: -0.037 | inactive: 0.027 | inactive: -0.098 | inactive: 0.006 | inactive: 0.038 | inactive: -0.042 | 
MAIP1 (UniProt Q8WWC4) | inactive: 0.071 | inactive: -0.114 | inactive: 0.062 | inactive: -0.072 |  | inactive: -0.008 | inactive: -0.21 | inactive: -0.147 | inactive: 0.027 | inactive: 0.007 | inactive: -0.004 | inactive: 0.031 | inactive: 0.028 | inactive: -0.047 | inactive: -0.006 | inactive: -0.025 | inactive: -0.005 | inactive: 0.005 | inactive: -0.021 | 

— the supplement of paper PMC10849652
